# According to the supplement of paper PMC3334620:
# Over roughly 33,000 sequences, “E-score (-0.5 to 0.5)” has its median near -0.015; the highest 2% begin near 0.3. This is one part of the list.
# Molecular target: T1, Abf1 (UniProt P14164)
# T1 sequence: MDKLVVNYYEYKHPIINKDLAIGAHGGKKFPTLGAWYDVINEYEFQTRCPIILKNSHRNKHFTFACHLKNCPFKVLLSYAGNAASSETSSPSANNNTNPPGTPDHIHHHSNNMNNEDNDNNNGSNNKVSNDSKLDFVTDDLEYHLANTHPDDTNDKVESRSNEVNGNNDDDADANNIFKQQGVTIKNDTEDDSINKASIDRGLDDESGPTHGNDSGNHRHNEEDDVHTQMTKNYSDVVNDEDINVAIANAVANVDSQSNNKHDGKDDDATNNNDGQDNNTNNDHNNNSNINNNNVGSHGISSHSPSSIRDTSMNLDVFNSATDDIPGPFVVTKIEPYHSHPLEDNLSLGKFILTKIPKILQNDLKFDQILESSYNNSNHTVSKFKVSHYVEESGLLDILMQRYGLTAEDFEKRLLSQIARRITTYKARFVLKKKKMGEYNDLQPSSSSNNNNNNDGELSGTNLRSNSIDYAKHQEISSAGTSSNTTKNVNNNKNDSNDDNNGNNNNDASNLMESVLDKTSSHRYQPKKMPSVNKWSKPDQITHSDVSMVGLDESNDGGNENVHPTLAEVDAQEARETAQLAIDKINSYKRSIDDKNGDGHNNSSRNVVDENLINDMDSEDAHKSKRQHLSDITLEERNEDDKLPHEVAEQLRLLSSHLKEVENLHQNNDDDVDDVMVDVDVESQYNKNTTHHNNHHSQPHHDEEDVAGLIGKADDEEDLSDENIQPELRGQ
# Assay: PBM E-score (8-mer binding enrichment) (E-score (-0.5 to 0.5)); higher = stronger / more preferred TF binding
# Settings: protein concentration: 200 nM; construct: GST-full length
# Procedure, shortened: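 Universal all-10-mer Agilent arrays, double-stranded by primer extension on fresh or once-stripped slides, were probed with about 100-200 nM GST-tagged yeast transcription factors made by PURExpress. Fluorescent anti-GST detected bound protein, and masliner normalised the scans. E-scores from the Universal PBM Analysis Suite were given to each ungapped eight-base word pooled with its reverse complement.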
row,Sequence,PBM E-score
1,ACGTGGAT,0.172
2,ACCCCAAC,0.0502
3,ACGCAGTG,-0.0566
4,ACCTAGGC,-0.251
5,CATCAGTC,-0.0698
6,GGTAGTAA,-0.13
7,AAGGTCGA,-0.00242
8,GGTCGAAC,-0.0647
9,CACCGTCA,0.245
10,AGATTGCG,-0.178
11,GTATCTCA,0.155
12,GCGCGCTA,0.0816
13,AGATGACA,0.316
14,TCATCTAA,0.169
15,GGAGAAAA,-0.0587
16,CTGGGAAA,0.0449
17,AGTCATAA,-0.0115
18,CAGAGCTG,-0.3
19,AATCAGAC,-0.072
20,CATCCACG,0.188
21,CCGGGGCG,-0.206
22,CAATCGTG,0.122
23,GCCATGCA,0.015
24,ATTCTTTA,-0.0415
25,GCCGTAAA,0.126

row,Sequence,PBM E-score
1,CCACAACG,-0.168
2,TATCCGGA,0.06
3,GTCTAGTA,0.163
4,ATGGCTGC,-0.0954
5,CCTAATAC,0.0651
6,ACTAGTTA,0.104
7,ACGGAACG,0.29
8,TCAGAAGA,0.0707
9,CGCAAACA,0.0853
10,CTTATAAA,0.0958
11,ACGACCGC,0.041
12,CCCCTTGC,-0.282
13,CAGTGGCC,-0.181
14,CAAATAGC,-0.0676
15,CTCCTGTA,-0.0785
16,CGGGCAAC,-0.152
17,GTACCACA,0.0854
18,CATAATAG,0.0952
19,ACGCCTGG,-0.0398
20,GTTTTTTA,0.0474
21,CCATATCA,0.163
22,CGACCCGC,0.0246
23,AGCTTCAT,-0.116
24,AGTCTTTC,-0.183
25,CCTCGGGA,-0.124

row,Sequence,PBM E-score
1,AACTACTC,0.0314
2,CACTCGGC,-0.0263
3,GCTTCTCA,-0.069
4,CCGGTAGG,-0.195
5,AAGCGAAT,0.194
6,AACTTTAC,0.067
7,ATGCACCA,0.023
8,CGCCTTTC,-0.16
9,CGCGTCCA,-0.048
10,GGATACCC,0.00814
11,ATAAATGA,0.288
12,AATCCCAT,-0.114
13,GATCCCGC,-0.0283
14,CGAGATCG,0.21
15,AGACGAAA,0.296
16,CCAGCGCC,-0.326
17,TAATTGAA,-0.00248
18,CCGAGTCC,-0.0682
19,AAGATGCA,0.0604
20,AAAATTAA,0.121
21,CTTTCACA,0.116
22,AACAAGAG,-0.249
23,CATGCCAC,-0.191
24,GCGGCCTA,-0.227
25,CTACTCAG,-0.124

row,Sequence,PBM E-score
1,AGCGGTCC,-0.115
2,AATGCCTG,-0.0437
3,TACGTGAA,0.181
4,CTAAGGGA,0.106
5,ACAAGTCT,0.135
6,TATCGACA,0.0331
7,ATAAGTTC,0.0514
8,CCCGACGG,0.105
9,TATCGCCA,0.186
10,CATCACAA,0.0688
11,AAAGCCGG,0.0367
12,AGACATAT,0.132
13,CACTCGTC,0.203
14,GAACTACA,-0.0916
15,GTGATCCA,0.132
16,AGATAGTA,0.134
17,GGGAGCCA,-0.334
18,CGACATCA,0.315
19,AGCGGCGC,-0.309
20,GCCCTTAA,-0.0919
21,GAAGGGTC,-0.227
22,CAGTGCCA,-0.127
23,ATCTAGAT,-0.0888
24,AGGTTTGG,-0.0175
25,ACAAGTCC,-0.0241

row,Sequence,PBM E-score
1,GAATAACA,-0.0615
2,CTCTTAGC,-0.185
3,ATCAGTCA,0.117
4,ATGAACTC,-0.088
5,GTGTACAA,0.195
6,GACCACTA,-0.0806
7,AGGAGAAA,-0.174
8,CTCTATGA,-0.0133
9,AAATTGCG,-0.00473
10,AATAGACA,0.00762
11,GGCTTTAC,-0.225
12,ACCGGAGT,-0.128
13,ACGCTCCC,-0.0883
14,AAGCCATA,0.0416
15,TCTTTTCA,0.174
16,GAACGGTC,0.0634
17,AACTGACA,-0.103
18,GAAGCTTA,-0.0251
19,AATATATC,0.139
20,ATTACCAC,0.0192
21,AGGAAAAT,-0.00369
22,GATTAAGA,0.174
23,AATACCAA,0.148
24,GGATCAGA,-0.158
25,AACTAATC,-0.05

row,Sequence,PBM E-score
1,CTATGTAC,0.0598
2,CGGCACCA,0.0755
3,GAGACGGC,0.179
4,GGAAGCTA,-0.104
5,CTGGTTGA,-0.23
6,CCAATAAA,-0.0419
7,GACCTGTA,-0.0517
8,AGTAGCGA,0.125
9,AGTCCGGA,-0.0513
10,AAAATAAT,0.223
11,CACCACGA,0.202
12,AGACACAG,-0.208
13,ACGGCATG,0.186
14,CAGTATGA,0.102
15,CGGTATGC,0.104
16,AGACACAT,-0.174
17,CCCCGTCG,0.184
18,CTCGATAA,0.0643
19,AAAAGAAC,-0.0798
20,ATAAAGGA,-0.178
21,ACATTTGG,-0.0911
22,GTAGCTGA,-0.287
23,CGAAGGTA,0.0175
24,GCACAGAC,0.0598
25,ATGTGACG,0.103

row,Sequence,PBM E-score
1,ACGCAGAC,-0.0327
2,ATGGGTGG,-0.196
3,ACCGTTCA,0.179
4,ATTATTCC,0.116
5,ACTCACAT,0.0317
6,GTGCAAGA,0.256
7,CACAGTAA,0.14
8,GTTAACCA,0.1
9,GCCCGCCC,-0.182
10,GCTGAGCA,-0.0912
11,CTTTAAGA,0.0422
12,GAGCGACA,0.156
13,GAAAGTGC,-0.178
14,ACCTACGG,-0.00975
15,AAAAATAC,0.0421
16,ACAAACTC,0.0554
17,GGATATGA,-0.00382
18,CGGAAGAG,-0.212
19,GTGAACTA,0.17
20,CTCTCGAA,-0.0477
21,TGCCGCCA,-0.0462
22,GAAGGAAC,-0.155
23,AAGTCGGA,-0.0504
24,AATCAGAT,0.12
25,GAGCGCAC,-0.206

row,Sequence,PBM E-score
1,GTCATATA,0.0965
2,GAATTTCC,0.00151
3,ATCAGGCC,-0.062
4,CGTATACG,0.195
5,AACTAGAC,0.207
6,AGCTCGAG,-0.192
7,TAGTTACA,-0.0977
8,AAGTGAAT,0.16
9,CAGTCTTC,-0.21
10,CAGAGGCG,-0.284
11,AGAATGAC,0.255
12,ACTCGCTG,-0.0846
13,GTTCCAAC,-0.156
14,ACCTCAGG,-0.0783
15,ACCAATCG,0.114
16,CACCCGGC,0.0172
17,GTCCGGAC,-0.012
18,CTCGCCAG,-0.167
19,AGGGAGGG,-0.193
20,GGCTATCA,-0.0522
21,CTCTACCA,-0.187
22,AGAGGGAT,-0.0786
23,AGTAGTGA,0.232
24,CACTCGAA,0.0748
25,AAGAGTTG,0.163

row,Sequence,PBM E-score
1,AGTATGCA,0.111
2,GCGGACAA,0.0266
3,CTTCCGGC,0.0161
4,CCTCGAGG,-0.2
5,CACTGGCC,-0.0631
6,CTCCGCAA,-0.125
7,CGTTTATA,0.196
8,AGAAGATA,0.201
9,CCATTAAA,-0.127
10,CACTATCG,0.0553
11,TGATGGCA,-0.152
12,AGCTTCGG,-0.0257
13,ATGATTGC,0.0463
14,CGATACTA,0.134
15,AGGGGTGC,-0.162
16,CATCTGAG,0.00876
17,AGGCACAC,-0.233
18,GATAAGCA,-0.00131
19,ACGCAGCA,-0.0265
